According to paper PMC10766952:
No constants are given. Whether binding was seen depends on the method and setting. In cells and extracts the contact can be indirect. Some binding calls cover weakened binding; strength is not graded here.

By UniProt entry, the sequences of proteins in these tests, tags left out.
UniProt Q4JK59: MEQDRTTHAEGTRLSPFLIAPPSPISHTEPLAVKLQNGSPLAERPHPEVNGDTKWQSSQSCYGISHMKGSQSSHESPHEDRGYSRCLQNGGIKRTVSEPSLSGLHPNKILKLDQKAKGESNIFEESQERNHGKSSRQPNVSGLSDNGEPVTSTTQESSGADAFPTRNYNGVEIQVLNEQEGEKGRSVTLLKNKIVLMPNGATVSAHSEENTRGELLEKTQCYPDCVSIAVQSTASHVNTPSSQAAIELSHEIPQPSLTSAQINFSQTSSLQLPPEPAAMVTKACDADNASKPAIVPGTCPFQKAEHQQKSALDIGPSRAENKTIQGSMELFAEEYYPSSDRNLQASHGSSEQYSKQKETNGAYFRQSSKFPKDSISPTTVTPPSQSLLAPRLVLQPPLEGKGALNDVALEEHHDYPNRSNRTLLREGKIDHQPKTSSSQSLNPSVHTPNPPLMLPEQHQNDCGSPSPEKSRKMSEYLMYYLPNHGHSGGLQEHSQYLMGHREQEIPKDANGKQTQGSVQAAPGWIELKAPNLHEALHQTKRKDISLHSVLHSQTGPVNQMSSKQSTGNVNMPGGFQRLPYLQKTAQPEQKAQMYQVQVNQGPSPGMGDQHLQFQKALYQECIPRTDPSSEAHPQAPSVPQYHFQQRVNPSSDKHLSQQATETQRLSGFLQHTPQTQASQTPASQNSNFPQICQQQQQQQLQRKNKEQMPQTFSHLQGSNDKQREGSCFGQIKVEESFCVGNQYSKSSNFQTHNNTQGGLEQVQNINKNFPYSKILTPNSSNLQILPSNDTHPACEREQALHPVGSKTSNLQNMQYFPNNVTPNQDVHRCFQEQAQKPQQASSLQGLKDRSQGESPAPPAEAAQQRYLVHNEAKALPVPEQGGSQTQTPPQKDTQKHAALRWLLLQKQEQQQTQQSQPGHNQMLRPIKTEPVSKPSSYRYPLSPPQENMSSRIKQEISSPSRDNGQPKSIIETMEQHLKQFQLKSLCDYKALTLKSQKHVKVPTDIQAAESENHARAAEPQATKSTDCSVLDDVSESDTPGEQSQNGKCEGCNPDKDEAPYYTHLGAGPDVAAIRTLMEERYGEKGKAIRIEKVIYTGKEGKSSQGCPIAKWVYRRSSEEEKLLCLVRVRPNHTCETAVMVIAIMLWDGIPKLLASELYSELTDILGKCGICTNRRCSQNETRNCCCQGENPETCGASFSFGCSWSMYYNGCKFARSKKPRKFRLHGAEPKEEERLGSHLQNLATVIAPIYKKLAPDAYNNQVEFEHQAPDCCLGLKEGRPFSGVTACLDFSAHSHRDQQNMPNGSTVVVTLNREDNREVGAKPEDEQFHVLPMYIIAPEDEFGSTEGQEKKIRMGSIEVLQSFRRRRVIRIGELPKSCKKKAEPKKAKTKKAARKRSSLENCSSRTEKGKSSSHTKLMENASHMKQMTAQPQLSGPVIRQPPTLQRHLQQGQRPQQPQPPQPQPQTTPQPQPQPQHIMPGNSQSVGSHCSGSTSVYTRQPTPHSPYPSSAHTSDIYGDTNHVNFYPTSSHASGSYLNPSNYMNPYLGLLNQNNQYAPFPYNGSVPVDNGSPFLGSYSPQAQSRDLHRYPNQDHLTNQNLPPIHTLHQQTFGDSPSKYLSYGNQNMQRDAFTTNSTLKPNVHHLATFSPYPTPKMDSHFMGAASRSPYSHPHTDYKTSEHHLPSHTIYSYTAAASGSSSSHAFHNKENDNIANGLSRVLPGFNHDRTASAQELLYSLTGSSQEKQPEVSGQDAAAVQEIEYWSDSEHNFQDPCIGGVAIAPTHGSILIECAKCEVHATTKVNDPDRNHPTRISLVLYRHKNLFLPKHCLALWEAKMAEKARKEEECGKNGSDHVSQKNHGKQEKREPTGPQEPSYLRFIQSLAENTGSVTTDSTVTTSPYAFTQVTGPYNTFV
UniProt P42230: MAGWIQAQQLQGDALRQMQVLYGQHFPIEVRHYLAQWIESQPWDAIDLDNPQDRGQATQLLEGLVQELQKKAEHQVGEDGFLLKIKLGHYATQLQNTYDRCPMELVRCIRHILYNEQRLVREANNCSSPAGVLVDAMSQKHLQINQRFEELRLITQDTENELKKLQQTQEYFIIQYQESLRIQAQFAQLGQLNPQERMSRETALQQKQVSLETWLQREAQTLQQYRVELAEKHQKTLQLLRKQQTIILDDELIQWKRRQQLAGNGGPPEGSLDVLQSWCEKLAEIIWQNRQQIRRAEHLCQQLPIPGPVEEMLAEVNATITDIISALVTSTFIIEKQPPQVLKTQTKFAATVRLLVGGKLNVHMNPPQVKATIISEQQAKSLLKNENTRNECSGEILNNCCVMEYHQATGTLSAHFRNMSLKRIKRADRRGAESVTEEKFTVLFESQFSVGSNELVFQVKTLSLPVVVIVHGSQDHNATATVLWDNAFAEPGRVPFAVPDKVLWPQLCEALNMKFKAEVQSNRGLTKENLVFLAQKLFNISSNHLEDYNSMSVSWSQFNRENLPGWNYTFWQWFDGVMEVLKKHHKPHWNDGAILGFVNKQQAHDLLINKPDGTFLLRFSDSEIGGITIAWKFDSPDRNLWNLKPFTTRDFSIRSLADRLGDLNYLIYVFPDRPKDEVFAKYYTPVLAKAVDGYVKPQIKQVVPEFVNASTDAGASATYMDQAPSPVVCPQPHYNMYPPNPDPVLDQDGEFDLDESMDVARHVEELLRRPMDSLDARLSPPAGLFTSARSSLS

Biological target: Tet2 (ten-eleven translocation-2 methylcytosine dioxygenase) (UniProt Q4JK59)
Test: co-IP; lysates (500 ug protein) of Hepa1-6 cells with Tet2 overexpression, with or without IL-2 stimulation; 2 ug anti-Tet2 overnight at 4 °C, protein G magnetic beads 2 h at 4 °C, three washes with lysis buffer, immunoblot for p-Stat5a

binding: binds
Substance: activated Stat5a (p-Stat5a) (from UniProt P42230 1-793)
